Results are given in words; binding and its absence hold for the method and conditions named. Sequences can lack the tags named with a protein.
Target: T1, MbnF from Methylocystis sp. strain SB2, C-terminally His6-tagged (Methylocystis sp. strain SB2)
T1 sequence: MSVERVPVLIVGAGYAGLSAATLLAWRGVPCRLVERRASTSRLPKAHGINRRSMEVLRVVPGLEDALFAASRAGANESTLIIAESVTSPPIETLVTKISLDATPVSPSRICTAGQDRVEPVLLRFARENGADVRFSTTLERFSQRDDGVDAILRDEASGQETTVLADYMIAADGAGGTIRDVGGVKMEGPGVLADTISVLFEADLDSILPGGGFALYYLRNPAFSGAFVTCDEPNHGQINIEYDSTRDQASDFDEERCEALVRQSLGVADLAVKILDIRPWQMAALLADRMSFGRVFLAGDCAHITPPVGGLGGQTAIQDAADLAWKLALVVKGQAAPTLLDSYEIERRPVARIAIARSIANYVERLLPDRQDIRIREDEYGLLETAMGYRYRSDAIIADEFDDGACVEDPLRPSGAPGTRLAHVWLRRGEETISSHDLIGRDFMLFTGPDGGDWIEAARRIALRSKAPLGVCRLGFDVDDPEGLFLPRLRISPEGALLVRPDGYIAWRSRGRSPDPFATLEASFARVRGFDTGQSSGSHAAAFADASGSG
Assay: condition: only acidic conditions (C4 column, 0.1% formic acid gradient); ESI-MS after a C4 column under acidic conditions; Restek Ultra C4 column, water + 0.1% formic acid/acetonitrile + 0.1% formic acid gradient; mixture of 1 mg/ml MbnA, 500 µM MbnF, 250 mM NaCl, 50 mM HEPES pH 7.4; both purified

B1: MbnA peptide (methanobactin MB-SB2 precursor peptide) (peptide)
peptide: IRIAKRITLNVIGRASARCASTCAATNG
notes: MbnA, precursor peptide of methanobactin MB-SB2, Methylocystis sp. strain SB2; the natural precursor may have further residues at its N-terminus; also called MB-SB2 peptide precursor; source: synthetic peptide, bought: AnaSpec (~90% pure)
binding: no binding
